One molecule from patent US20250340607A1 (UNIVERSITY OF CHICAGO, published 2025) can be followed below.

No constants are given. Whether binding was seen depends on the method and setting. Some binding calls cover weakened binding; strength is not graded here.

This test concerns the target T1, murine Flt3 (R&D 768-F3-050) (murine, UniProt Q00342 28-544).
T1 construct: Bought recombinant protein coated on the ELISA plate; also called receptor for Flt3L; recombinant CD135
T1 sequence (looked up): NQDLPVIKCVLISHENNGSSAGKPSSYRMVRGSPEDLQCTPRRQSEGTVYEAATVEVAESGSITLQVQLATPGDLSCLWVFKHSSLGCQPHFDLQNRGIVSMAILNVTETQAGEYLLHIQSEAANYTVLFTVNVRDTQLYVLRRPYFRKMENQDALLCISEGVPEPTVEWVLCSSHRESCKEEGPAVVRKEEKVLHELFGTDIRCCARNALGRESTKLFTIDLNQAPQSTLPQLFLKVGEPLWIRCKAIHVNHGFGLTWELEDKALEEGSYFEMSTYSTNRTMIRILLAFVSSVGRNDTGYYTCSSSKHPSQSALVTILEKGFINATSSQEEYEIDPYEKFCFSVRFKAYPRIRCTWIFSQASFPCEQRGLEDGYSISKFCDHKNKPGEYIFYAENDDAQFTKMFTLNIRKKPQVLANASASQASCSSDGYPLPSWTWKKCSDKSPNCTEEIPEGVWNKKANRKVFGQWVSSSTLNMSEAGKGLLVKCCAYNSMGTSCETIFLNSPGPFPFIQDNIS
The experiment in a line: CD135 binding ELISA: plate coated with 10 nM recombinant CD135. For orientation: An ELISA detects its analyte on a solid surface through an enzyme-linked reagent.

B1: wild type murine Flt3L (ligand)
chain: MTPDCYFSHSPISSNFKVKFRELTDHLLKDYPVTVAVNLQDEKHCKALWSLFLAQRWIEQLKTVAGSKMQTLLEDVNTEIHFVTSCTFQPLPECLRFVQTNISHLLKDTCTQLLALKPCIGKACQNFSRCLEVQCQPDSSTLLPPRSPIALEATELPEPRPRQ
notes: Made in HEK293F cells and glycosylated (multiple bands around 30 kDa); also called WT Flt3L; WT; not shown: it was purified over a HisTrap HP column, so it probably carries a His tag
As for B1, the binding entry is listed as “binds”.
